The other results are listed elsewhere or left out. Shown are side measurements of this screen, not its main read-out; they come without a call. The list favours compounds with an active or inconclusive main result. The note in brackets gives the kind of curve behind each potency; many fits are weak.
Experiment: qHTS Assay for Lipid Storage Modulators in Drosophila S3 Cells;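 for cell number change: cells counted by Cell Tracker Red CMTPX staining in the red channel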
Settings: BODIPY lipid droplet fluorescence, 18-24 h; for cell number change: measured here: cell count max response, cells fed with added oleic acid
In short: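 Drosophila S3 cells got compounds at several concentrations plus oleic acid (400 uM solution). Laser-scanning cytometry with 488 nm excitation read lipid droplets at 500-530 nm and cells at 575-640 nm. Percent activity was relative to 20 uM Triacsin C.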

[1] = measured here: cell number channel AC50, cells fed with added oleic acid
[2] = measured here: lipid fluorescence (Fed channel) AC50, cells fed with added oleic acid

SMILES | cell number change [%] | AC50 [1] | AC50 [2]
O=C(COC(=O)CNS(=O)(=O)/C=C/c1ccccc1)Nc1cccc2ccccc12 | 21 | – | –
CCCc1ccc2oc(C(=O)NCCCN3CCOCC3)c(C)c2c1 | 50.4 | 29.1 µM [rising, single point] | 29.1 µM [rising, single point]
Fc1ccc(C(c2nnnn2C2CCCC2)N2CCc3ccccc32)cc1 (stereo not drawn) | -21.3 | – | 9.2 µM [falling, partial curve]
C=C(C)COc1ccc(-c2nc(N)ncc2Oc2ccccc2OC)c(O)c1 | -23.5 | – | –
COC(=O)c1[nH]c2ccc(C)cc2c1NC(=O)CCN1CCN(Cc2ccc3c(c2)OCO3)CC1 | -24.6 | – | 25.9 µM [falling, partial curve, poor fit]
Cc1c(Nc2cc(=O)oc3ccccc23)c(=O)n(-c2ccccc2)n1C | -30.8 | 5.8 µM [falling, full curve, poor fit] | –
CC(=O)Nc1ccc(S(=O)(=O)NC(CC(=O)NCCCN2CCOCC2)C(C)C)cc1 (stereo not drawn) | 7.76 | – | –
CCn1cc(C(=O)NCc2ccncc2)c(=O)c2cc(F)c(N3CCN(C(=O)c4ccco4)CC3)cc21 | -20.8 | – | 1.3 µM [falling, full curve]
Cc1cc(C)c(NC(=O)C2CCCO2)c(C)c1NC(=O)C1CCCO1 (stereo not drawn) | 7.14 | – | 29.1 µM [falling, single point]
Cc1cc(-c2csc3ncnc(N4CCN(C)CC4)c23)cc(C)c1C | 4.58 | – | 20.6 µM [rising, single point]
Cc1ccc(NC(=O)C2CCCN(C(=O)c3ccc(Cl)cc3)C2)cc1C (stereo not drawn) | 44.7 | 16.4 µM [rising, single point] | –
CC(=O)NC(CCS(C)(=O)=O)C(=O)Nc1ccccc1C (stereo not drawn) | -56.5 | 23.1 µM [falling, partial curve, poor fit] | 29.1 µM [rising, single point]
O=C(N/N=C/c1ccco1)c1cc([N+](=O)[O-])cc([N+](=O)[O-])c1 | -46.2 | 29.1 µM [falling, single point] | 0.82 µM [rising, full curve, poor fit]
CN(C)N=Nc1ccc(-c2cn(Cc3ccccc3)cn2)cc1 | -8.03 | – | 7.31 µM [rising, partial curve, poor fit]
COc1ccc(NC2CCCN(C(=O)CCC3=NNC(=O)CC3)C2)cc1 (stereo not drawn) | -39.6 | 29.1 µM [falling, single point] | 1.84 µM [falling, partial curve]
Nc1nc(-c2ccc(Cl)cc2)c(S(=O)(=O)c2ccccc2)s1 | -40.3 | 0.103 µM [falling, full curve, poor fit] | –

— PubChem BioAssay AID2685 (National Center for Advancing Translational Sciences (NCATS), 2010)
